Data from article PMC10795463.
No constants are given. Whether binding was seen depends on the method and setting. In cells and extracts the contact can be indirect. Some results given as binding are weak or reduced against the parent protein; the word gives no strength.

Amino acid sequences for entries named in this document (tags omitted).
UniProt Q86U44: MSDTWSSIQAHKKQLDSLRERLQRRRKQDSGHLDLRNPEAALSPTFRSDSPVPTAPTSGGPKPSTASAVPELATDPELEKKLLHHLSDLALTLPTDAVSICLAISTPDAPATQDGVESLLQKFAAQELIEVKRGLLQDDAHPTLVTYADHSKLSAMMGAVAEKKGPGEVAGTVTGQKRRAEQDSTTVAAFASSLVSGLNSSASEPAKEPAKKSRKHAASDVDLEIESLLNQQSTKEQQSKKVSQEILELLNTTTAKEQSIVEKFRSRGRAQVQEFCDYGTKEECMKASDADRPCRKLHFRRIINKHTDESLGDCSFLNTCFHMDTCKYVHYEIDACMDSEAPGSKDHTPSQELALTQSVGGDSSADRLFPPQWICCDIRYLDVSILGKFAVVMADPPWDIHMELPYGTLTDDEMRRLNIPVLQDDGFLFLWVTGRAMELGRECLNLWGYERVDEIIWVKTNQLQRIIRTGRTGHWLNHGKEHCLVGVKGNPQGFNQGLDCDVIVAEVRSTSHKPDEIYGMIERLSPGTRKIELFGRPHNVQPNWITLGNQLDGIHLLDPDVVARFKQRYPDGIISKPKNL
UniProt P60228: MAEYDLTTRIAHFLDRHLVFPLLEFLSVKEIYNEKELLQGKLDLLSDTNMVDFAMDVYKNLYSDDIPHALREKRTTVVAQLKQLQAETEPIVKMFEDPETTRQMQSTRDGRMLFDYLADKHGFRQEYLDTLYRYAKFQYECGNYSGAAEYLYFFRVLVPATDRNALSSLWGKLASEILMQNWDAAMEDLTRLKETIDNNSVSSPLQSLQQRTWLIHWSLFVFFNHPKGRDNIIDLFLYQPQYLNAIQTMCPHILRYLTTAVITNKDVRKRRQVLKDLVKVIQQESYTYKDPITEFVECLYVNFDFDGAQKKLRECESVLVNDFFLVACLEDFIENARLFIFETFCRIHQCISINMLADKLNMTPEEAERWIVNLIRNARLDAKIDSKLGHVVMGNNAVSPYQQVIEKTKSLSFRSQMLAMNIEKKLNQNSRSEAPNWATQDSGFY
UniProt Q13347: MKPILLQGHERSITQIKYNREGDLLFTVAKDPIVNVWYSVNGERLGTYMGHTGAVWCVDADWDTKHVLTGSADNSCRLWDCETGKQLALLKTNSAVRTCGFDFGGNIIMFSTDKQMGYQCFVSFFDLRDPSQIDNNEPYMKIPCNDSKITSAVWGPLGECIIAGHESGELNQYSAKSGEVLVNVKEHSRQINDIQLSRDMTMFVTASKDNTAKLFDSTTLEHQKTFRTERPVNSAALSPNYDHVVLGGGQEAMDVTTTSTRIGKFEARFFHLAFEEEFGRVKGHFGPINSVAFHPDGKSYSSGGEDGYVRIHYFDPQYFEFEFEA

Molecular target: METTL3 (human (endogenous in A549)) (UniProt Q86U44)
Test: co-IP; lysates in RIPA buffer, 500 µg total protein, 4 µg antibody at 4 °C for 16 h, protein G agarose beads 3 h; blots with anti-METTL3, anti-eIF4E, anti-eIF3e, anti-eIF3i

| binding | Substance |
| --- | --- |
| binds | eIF3e (from UniProt P60228 1-445) |
| binds | eIF3i (from UniProt Q13347 1-325) |
